This note sets out measurements from patent publication US20090239850A1.

The chains behind the UniProt entries cited, without tags or fusion partners. Where a name states a change or a piece, a line headed by the entry shows the natural chain unless it says otherwise. Residues count along the entry.
UniProt Q05397: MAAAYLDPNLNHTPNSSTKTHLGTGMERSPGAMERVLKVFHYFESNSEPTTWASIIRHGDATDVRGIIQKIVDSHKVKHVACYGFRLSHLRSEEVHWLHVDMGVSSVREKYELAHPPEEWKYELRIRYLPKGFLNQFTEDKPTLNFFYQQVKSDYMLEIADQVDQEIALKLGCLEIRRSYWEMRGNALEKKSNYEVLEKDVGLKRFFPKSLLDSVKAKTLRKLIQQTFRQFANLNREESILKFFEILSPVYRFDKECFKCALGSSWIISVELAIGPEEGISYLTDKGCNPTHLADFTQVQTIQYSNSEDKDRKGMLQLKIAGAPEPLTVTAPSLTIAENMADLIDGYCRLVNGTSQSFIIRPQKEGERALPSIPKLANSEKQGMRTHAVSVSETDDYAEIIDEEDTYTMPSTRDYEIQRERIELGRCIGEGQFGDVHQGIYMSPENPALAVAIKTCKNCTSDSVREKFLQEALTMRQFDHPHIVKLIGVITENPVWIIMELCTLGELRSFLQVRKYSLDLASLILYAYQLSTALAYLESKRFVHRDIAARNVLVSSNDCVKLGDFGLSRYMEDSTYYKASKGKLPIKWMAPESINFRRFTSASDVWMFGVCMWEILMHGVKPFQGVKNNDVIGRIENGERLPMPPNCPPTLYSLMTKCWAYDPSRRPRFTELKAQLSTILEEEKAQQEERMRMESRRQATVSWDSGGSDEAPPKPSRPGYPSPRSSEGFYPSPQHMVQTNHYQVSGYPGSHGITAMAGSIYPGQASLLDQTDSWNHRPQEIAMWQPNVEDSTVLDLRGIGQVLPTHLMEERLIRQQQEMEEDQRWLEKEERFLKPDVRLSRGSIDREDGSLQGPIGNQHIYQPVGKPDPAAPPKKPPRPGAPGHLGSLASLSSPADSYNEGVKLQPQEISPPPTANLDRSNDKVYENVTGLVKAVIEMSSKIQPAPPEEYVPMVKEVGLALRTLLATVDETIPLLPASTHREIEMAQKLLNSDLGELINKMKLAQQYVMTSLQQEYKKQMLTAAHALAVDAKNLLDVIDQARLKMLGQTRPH
human full length FAK (Focal Adhesion Kinase): residues 2-1052 of Q05397
UniProt P35916, residues 25-1363: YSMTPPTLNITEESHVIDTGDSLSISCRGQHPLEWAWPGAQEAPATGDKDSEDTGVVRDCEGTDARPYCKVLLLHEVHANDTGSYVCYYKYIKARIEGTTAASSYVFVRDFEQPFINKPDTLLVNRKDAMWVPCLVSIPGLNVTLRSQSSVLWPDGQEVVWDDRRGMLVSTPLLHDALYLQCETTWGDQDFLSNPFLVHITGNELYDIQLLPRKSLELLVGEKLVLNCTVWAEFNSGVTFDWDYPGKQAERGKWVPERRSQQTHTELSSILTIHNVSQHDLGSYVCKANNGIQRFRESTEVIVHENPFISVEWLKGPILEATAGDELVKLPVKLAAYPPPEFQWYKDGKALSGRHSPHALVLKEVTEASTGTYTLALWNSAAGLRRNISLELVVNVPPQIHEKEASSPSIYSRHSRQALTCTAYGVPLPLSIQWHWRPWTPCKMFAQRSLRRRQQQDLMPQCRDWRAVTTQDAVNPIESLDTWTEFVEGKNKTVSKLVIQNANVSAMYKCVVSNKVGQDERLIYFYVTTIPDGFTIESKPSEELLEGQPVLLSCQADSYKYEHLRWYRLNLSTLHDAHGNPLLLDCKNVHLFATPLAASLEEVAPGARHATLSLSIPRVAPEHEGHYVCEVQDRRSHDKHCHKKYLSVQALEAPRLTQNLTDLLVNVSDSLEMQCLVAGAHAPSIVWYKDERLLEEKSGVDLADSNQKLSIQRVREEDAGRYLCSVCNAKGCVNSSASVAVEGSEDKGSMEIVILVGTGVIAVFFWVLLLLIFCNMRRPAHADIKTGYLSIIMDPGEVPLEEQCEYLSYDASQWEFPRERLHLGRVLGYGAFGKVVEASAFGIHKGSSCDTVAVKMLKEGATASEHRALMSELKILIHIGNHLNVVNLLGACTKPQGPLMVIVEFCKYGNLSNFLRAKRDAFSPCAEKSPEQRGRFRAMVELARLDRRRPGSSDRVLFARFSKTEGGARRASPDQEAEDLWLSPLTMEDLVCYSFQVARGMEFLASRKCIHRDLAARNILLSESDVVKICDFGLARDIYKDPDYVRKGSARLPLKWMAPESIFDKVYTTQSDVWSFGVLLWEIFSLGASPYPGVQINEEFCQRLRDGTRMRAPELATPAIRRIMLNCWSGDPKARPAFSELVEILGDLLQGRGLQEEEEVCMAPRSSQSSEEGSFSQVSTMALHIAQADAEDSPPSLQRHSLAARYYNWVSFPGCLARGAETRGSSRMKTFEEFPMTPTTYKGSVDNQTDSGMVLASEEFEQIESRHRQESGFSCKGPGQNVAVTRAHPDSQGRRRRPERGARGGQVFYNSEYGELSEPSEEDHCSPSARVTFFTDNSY

Assay [1] addresses Focal Adhesion Kinase (FAK) (UniProt Q05397). The assay is described as follows: binding studies, not further described.
Assay [2] has as its target human full length FAK (Focal Adhesion Kinase) (human) (UniProt Q05397). The assay is described as follows: pull-down assay with human full length FAK.

No constants are given. Whether binding was seen depends on the method and setting. For some assays here: Binding seen in cells or lysates may run through a third protein. Some results given as binding are weak or reduced against the parent protein; the word gives no strength.

For “vascular endothelial growth factor receptor 3 (VEGFR-3) (from UniProt P35916 25-1363)”, the binding entry in assay [1] was “binds”.

As to “wild type p53 protein (from UniProt P04637 1-393)”, the binding entry in assay [2] is “binds”.
